≈ marks a conversion by molar mass, not a printed value.
Columns and labels:
Type in all cases: functional
[1] = system: Pseudomonas aeruginosa; test: microbe, parasite or virus in culture; details: ATCC 27853, 5 h
[2] = system: Staphylococcus epidermidis; test: Antibacterial activity against penicillin-resistant Staphylococcus epidermidis clinical isolates after 24 hrs by broth microdilution method
[3] = system: Escherichia coli; test: microbe, parasite or virus in culture; details: ATCC 25922, 24 h
[4] = system: Bacillus subtilis; test: microbe, parasite or virus in culture; details: ATCC 9372, 24 h
[5] = system: Pseudomonas aeruginosa; test: microbe, parasite or virus in culture; details: ATCC 27853, 24 h
[6] = system: Bacillus subtilis; test: microbe, parasite or virus in culture; details: ATCC 9372, 5 h
[7] = system: Escherichia coli; test: microbe, parasite or virus in culture; details: ATCC 25922, 5 h
[8] = system: Streptococcus pyogenes; test: Antibacterial activity against penicillin-susceptible Streptococcus pyogenes clinical isolates after 24 hrs by broth microdilution method
[9] = system: Staphylococcus aureus; test: microbe, parasite or virus in culture; details: ATCC 25923, 24 h
[10] = system: Staphylococcus aureus; test: microbe, parasite or virus in culture; details: ATCC 25923, 5 h
[11] = system: Staphylococcus aureus; test: Antibacterial activity against penicillin-resistant Staphylococcus aureus clinical isolates after 24 hrs by broth microdilution method
[12] = system: Staphylococcus aureus; test: microbe, parasite or virus in culture; details: ATCC 29213, 24 h

Q: `COc1ccc(NC(=O)/C=C/c2ccccc2)cc1` [N-(4-METHOXYPHENYL)CINNAMAMIDE] was tested. Which MIC [1] did it give?
A: Its MIC is 128 µg/mL (≈ 505 µM).

Q: What about the MIC [2] of the same compound?
A: The MIC was over 128 µg/mL.

Q: What about the MIC [3] of the same compound?
A: Its MIC is 128 µg/mL (≈ 505 µM).

Q: And the MIC [4]?
A: Its MIC is 128 µg/mL (≈ 505 µM).

Q: What about the MIC [5] of the same compound?
A: Its MIC is 128 µg/mL (≈ 505 µM).

Q: And the MIC [6]?
A: The MIC was over 128 µg/mL.

Q: What about the MIC [7] of the same compound?
A: The MIC was 128 µg/mL (≈ 505 µM).

Q: And the MIC [8]?
A: Its MIC is over 128 µg/mL.

Q: And the MIC [9]?
A: The MIC was over 128 µg/mL.

Q: And the MIC [10]?
A: The MIC was over 128 µg/mL.

Q: What about the MIC [11] of the same compound?
A: Its MIC is over 128 µg/mL.

Q: And the MIC [12]?
A: The MIC was over 128 µg/mL.
